Values from PubChem BioAssay AID1259307 (Sanger Institute, 2017).
The deposit covers 794 reagents; this is an unselected part. Of all reagents, 15 (1.9%) were called active. 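Calls reflect lethality without any drug; synergy scores did not enter the calls.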 No viability above 1 is reported: the scale is capped. No sequences are given here. Not given: the amount of reagent, the time to read-out.

Screen: 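siRNA kinome screen seeking kinases whose loss harms SW620 cells alone or with drugs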 (primary screen)
Cells: SW620 colorectal cancer cells
Knock-down reagent: siRNA pool against human genes
Conditions: anchor drugs BYL719 at 1 µM, cetuximab at 5 µg/ml or trametinib at 10 nM, each beside a DMSO vehicle arm
Detection: 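Per-well viability versus non-targeting control pool, replicate-averaged, robust z-score from controls; synergy scores for BYL719 1 µM, cetuximab 5 µg/ml, trametinib 10 nM against DMSO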
Reading the numbers: viability robust z-score, no drug and viability vs control, no drug: higher = more viable cells; synergy score with BYL719 and synergy score with cetuximab and synergy score with trametinib: higher = stronger synthetic lethality with the drug
Rule for the call: 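a knock-down counts as lethal alone if its drug-free robust viability z-score is lower than -3, regardless of synergy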
Calls: active = essential (lethal alone); inactive = no change alone

The first 2 records as a preview:
no.	gene knocked down	viability robust z-score, no drug	viability vs control, no drug	synergy score with BYL719	synergy score with cetuximab	synergy score with trametinib	call
1	HUS1 (HUS1 checkpoint clamp component)	0.201	0.951	-0.0167	0.0443	0.028	inactive
2	EIF2AK1 (eukaryotic translation initiation factor 2 alpha kinase 1)	0.736	1	-0.0505	0	0.207	inactive

Results, from the start:
no.	gene knocked down	viability robust z-score, no drug	viability vs control, no drug	synergy score with BYL719	synergy score with cetuximab	synergy score with trametinib	call
1	HUS1 (HUS1 checkpoint clamp component)	0.201	0.951	-0.0167	0.0443	0.028	inactive
2	EIF2AK1 (eukaryotic translation initiation factor 2 alpha kinase 1)	0.736	1	-0.0505	0	0.207	inactive
3	PIP5K1A (phosphatidylinositol-4-phosphate 5-kinase type 1 alpha)	-1.76	0.769	-0.0714	-0.0816	-0.00309	inactive
4	DAPK3 (death associated protein kinase 3)	0.238	0.954	0.0153	-0.0459	-0.0445	inactive
5	CALM2 (calmodulin 2)	0.736	1	0.00438	0	0.079	inactive
6	EFNA4 (ephrin A4)	0.736	1	-0.0919	0	0.0455	inactive
7	TGFBR3 (transforming growth factor beta receptor 3)	0.363	0.966	-0.0859	0.00945	0.0268	inactive
8	CAMKV (CaM kinase like vesicle associated)	0.736	1	-0.0692	0.0288	0.00764	inactive
9	TNIK (TRAF2 and NCK interacting kinase)	0.736	1	-0.063	0	0.0589	inactive
10	STK3 (serine/threonine kinase 3)	-0.103	0.923	-0.043	-0.0208	-0.0172	inactive
11	BRSK1 (BR serine/threonine kinase 1)	0.736	1	-0.0402	0	-0.0397	inactive
12	BRD2 (bromodomain containing 2)	0.736	1	-0.0256	0.0324	-0.0459	inactive
13	ERN1 (endoplasmic reticulum to nucleus signaling 1)	0.422	0.971	0.048	0.0655	0.085	inactive
14	SNRK (SNF related kinase)	-1.26	0.816	0.101	0.11	0.13	inactive
15	PRKACA (protein kinase cAMP-activated catalytic subunit alpha)	0.736	1	-0.0919	0	-0.0754	inactive
16	EGFR (epidermal growth factor receptor)	-0.78	0.86	-0.0635	-0.0668	-0.0585	inactive
17	PKM (pyruvate kinase M1/2)	0.736	1	0.0935	0.0477	0.0146	inactive
18	DLG4 (discs large MAGUK scaffold protein 4)	-1.41	0.802	-0.187	-0.192	-0.0145	inactive
19	TLK1 (tousled like kinase 1)	0.736	1	0.0337	0	0.0323	inactive
20	MAP3K14 (mitogen-activated protein kinase kinase kinase 14)	-0.549	0.881	-0.0533	-0.0184	-0.103	inactive
